Reference: patent US20250122300A1 (INSERM INSTITUT NATIONAL DE LA SANT ET DE LA RECHERCHE M …, published 2025)
No constants are given. Whether binding was seen depends on the method and setting. Binding can be weak; no strength is given.

Tests used:
[1] = molecular target: macaque CD45RC (cynomolgus macaque); assay: flow cytometry on cynomolgus macaque PBMC, 10 µg/ml
[2] = molecular target: macaque CD45RC (cynomolgus macaque); assay: flow cytometry on macaque blood cells (figure legend)

Binder | binding [1] | binding [2]
Anti-45RC Variant A (antibody, human IgG1, kappa, V domains shown) VH: QVQLVQSGAEVKKPGASVKVSCKASGYTFTNYYIGWVRQAPGQGLEWIGDIFPGGDYANSNEKFKGRVTLTADTSISTAYMELSRLRSDDTVVYYCVRRNFDYWGQGTLVTVSS VL: DIQLTQSPSFLSASVGDRVTITCSASSSVSYMHWFQQKPGKAPKLWIYNTSNLPSGVPSRFSGSGSGTEYTLTISSLQPEDFATYYCQQRSSYPLTFGGGTKVEIKR | binds | binds
ABIS-45RC (antibody, mouse IgG1, kappa, V domains shown, the variable domains are the same; also called murine ABIS-45RC; murine anti-hCD45RC antibody of the invention) VH: QVQLQQSGAELVRPGTSVKMSCKAAGYTFTNYYIGWVKQRPGHGLEWIGDIFPGGDYANSNEKFKGKATLTADTSSSTAYMQLSSLTSEDSAIYYCVRRNFDYWGQGTTLTVSS VL: QIVLTQSPTIMSASPGEKVTITCSASSSVSYMHWFQQKTGTSPRLWIYNTSNLPSGVPARFSGSGSGTSYSLTISRMEAEDAATYYCQQRSSYPLTFGAGTKLELKR | binds | binds

The remaining lines, values ahead:

binding [1] | binding [2] | Binder
binds | binds | Anti-45RC Variant A3 (antibody, human IgG1, kappa, V domains shown) VH: QVQLVQSGAEVKKPGASVKVSCKASGYTFTNYYIGWVRQAPGQGLEWIGDIFPGGGYTNYAEKFQGRVTLTADTSISTAYMELSRLRSDDTVVYYCVRRNFDYWGQGTLVTVSS VL: DIQLTQSPSFLSASVGDRVTITCRASSSVSYMHWYQQKPGKAPKLWIYNTSNLPSGVPSRFSGSGSGTEYTLTISSLQPEDFATYYCQQRSSYPLTFGGGTKVEIKR
binds | binds | Anti-45RC Variant A1 (antibody, human IgG1, kappa, V domains shown) VH: QVQLVQSGAEVKKPGASVKVSCKASGYTFTNYYIGWVRQAPGQGLEWIGDIFPGGDYTNYAEKFQGRVTLTADTSISTAYMELSRLRSDDTVVYYCVRRNFDYWGQGTLVTVSS VL: DIQLTQSPSFLSASVGDRVTITCRASSSVSYMHWYQQKPGKAPKLWIYNTSNLPSGVPSRFSGSGSGTEYTLTISSLQPEDFATYYCQQRSSYPLTFGGGTKVEIKR
